The results in this text go back to PubChem BioAssay AID493014 (National Center for Advancing Translational Sciences (NCATS), 2011).

In general, AC50 refers to the concentration giving half of the maximal activity seen.

This assay is described as follows: qHTS Assay to Find Inhibitors of Chronic Active B-Cell Receptor Signaling. Particulars: ABC-DLBCL IkBa-CBG/CBR reporter, luminescence ratio (green luciferase fused to IkBa over red control in TMD8 lymphoma cells), 4 h. The method, boiled down: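 Compounds up to 46 uM were incubated four hours with TMD8 cells whose green CBG68 luciferase is fused to IkappaBalpha; red CBR luminescence normalised the signal, and concentration-effect curves were fitted to fusion, red and ratio data.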

Setting [1] is: measured here: IkBa-CBG green luminescence.
Setting [2] is: measured here: CBR red luminescence, cell number.

The list shows a part of the results. Shown are side measurements of this screen, not its main read-out; they come without a call. The list favours compounds with an active or inconclusive main result. Words in brackets tell the shape of the fitted curve; partial curves, single points and poor fits give uncertain potencies.

As for `COc1ccc(/C=N/NC(=O)c2ccc(CSc3nc(C)cc(C)n3)cc2)cc1O`, the AC50 under setting [1] is 20.6 µM [falling, single point].
In the case of `COC(=O)c1ccccc1NC(=O)Cc1nc(-c2ccccc2)sc1-c1ccc(C)cc1`, the AC50 under setting [2] is 0.00651 µM [rising, full curve, poor fit].
Still for that read-out and setting: in the case of `COC(=O)c1ccc(CSc2cc(C)c3ccccc3n2)o1` it was 35.5 µM [falling, single point].
Still for that read-out and setting: in the case of `S=c1[nH]nc(C2CCCCC2)n1/N=C/C(Cl)=C\c1ccccc1` it was 6.51 µM [falling, partial curve].
As for `O=C(/C=C\c1ccccc1)Oc1cccc2cccnc12`, the AC50 under setting [2] was 35.5 µM [falling, single point] and the AC50 under setting [1] is 15.8 µM [falling, partial curve].
For the compound `c1ccc(CCN2CN=C(Nc3nc4ccccc4o3)NC2)cc1`, the AC50 under setting [2] was 29.1 µM [rising, partial curve, poor fit].
The same measure, in the same setting: the same measure for `COc1ccc(-n2nnc3c(SCC(=O)NCc4ccco4)ncnc32)cc1`: 12.6 µM [falling, partial curve].
For `CCOC(=O)c1ccc(NC(=O)CSc2nnc(CNc3ccc(C)cc3)n2C)cc1`, under setting [2], the AC50 is 18.4 µM [falling, partial curve, poor fit].
On the same count and under the same terms, in the case of `COC(=O)CSc1nnc(C)c(=O)[nH]1` it was 0.731 µM [falling, partial curve, poor fit]; in that of `CCOCCCNC(=O)C1CCN(Cc2cccc(OCc3ccccc3)c2)CC1`, 8.91 µM [rising, partial curve, poor fit]; in that of `Cc1cccc(N2CCN(C(=O)c3ccc(CS(=O)Cc4ccc(Cl)cc4)o3)CC2)c1C` (configuration not stated), 35.5 µM [falling, single point].
Still for that read-out and setting: the same measure for `Cc1cc(C)cc(OC(C)C(=O)Nc2ccc3c(c2)n(C)c(=O)n3C)c1` (configuration not stated): 35.5 µM [rising, partial curve, poor fit].
As for `COc1ccccc1Nc1nnc(SCC2CCCCO2)s1` (configuration not stated), the AC50 is, setting by setting: under setting [2], 4.47 µM [falling, full curve, poor fit]; under setting [1], 10 µM [falling, partial curve, poor fit].
Take `CCn1cc(C(=O)Nc2ccccc2C(=O)OC)c(=O)c2ccc(C)nc21`: the AC50 under setting [2] was 11.2 µM [falling, single point].
Take `CCN(C(=O)/C=C/c1ccccc1)C1CCCCC1`: the AC50 under setting [2] was 1.26 µM [rising, partial curve, poor fit].
The same measure, in the same setting: in the case of `COc1cc(C2c3sc(=O)[nH]c3SC3C(=O)N(c4ccc(C)cc4)C(=O)C32)ccc1O` (configuration not stated) it was 22.4 µM [falling, single point].
Consider `CC1(C)CCCN(C(=O)c2coc(=O)c(Br)c2)C1`, for which, under setting [2], the AC50 was 0.447 µM [rising, partial curve, poor fit].
Same read-out and setting: the same measure for `CSc1ccccc1OCc1cc(C(=O)N(C)Cc2cc(C)[nH]n2)no1`: 2.82 µM [falling, full curve].
Consider `O=C(O)c1cc([N+](=O)[O-])c(NCCC2=CCCCC2)c([N+](=O)[O-])c1`, for which, under setting [1], the AC50 is 4.47 µM [rising, full curve, poor fit].
As for `C=CCn1c(SCC(=O)c2cccs2)nc2sc(C)c(C)c2c1=O`, under setting [2], the AC50 was 16.4 µM [rising, single point].
Consider `Cc1cccc(NC(=O)CCOc2ccccc2)c1C`, for which the AC50 under setting [2] is 10 µM [falling, partial curve].
The same measure, in the same setting: the same measure for `CCCC(=O)Nc1ccc(C(=O)N/N=C/c2ccc[nH]2)cc1`: 23.1 µM [rising, single point]; for `CC(=O)NC(C)C(=O)OCC(=O)c1ccc(-c2ccccc2)cc1` (configuration not stated): 35.5 µM [rising, single point]; for `O=C(Nc1ccccc1C(=O)NC(Cc1c[nH]c2ccccc12)C(=O)O)c1ccccc1` (configuration not stated): 31.6 µM [falling, partial curve, poor fit].
On the same count and under the same terms, the same measure for `CSCCC1NC2(C(=O)Nc3c2ccc(Cl)c3C)[C@@H]2C(=O)N(C3CCCC3)C(=O)[C@H]12` (some centres not stated): 29.1 µM [rising, single point].
The same measure, in the same setting: the same measure for `O=C(Nc1ccccc1C(=O)N1CCCC1)c1ncoc1-c1cccc(Cl)c1`: 14.1 µM [falling, partial curve, poor fit]; for `N=c1c(S(=O)(=O)c2ccccc2)cc2c(=O)n3ccccc3nc2n1Cc1ccco1`: 1.58 µM [falling, partial curve].
As to `C/C(=N\NC(=O)c1cccc(F)c1)c1ccc(NC(=O)Cc2ccccc2)cc1`, under setting [2], the AC50 is 35.5 µM [falling, single point].
On the same count and under the same terms, in the case of `CCOC(=O)c1sc(NC(=O)CN2CCN(c3ccc(OC)cc3)CC2)nc1C` it was 22.4 µM [falling, single point]; in that of `COc1ccc(C(=O)COc2ccccc2C#N)cc1`, 0.447 µM [rising, full curve, poor fit].
Same read-out and setting: in the case of `CC1CCN(CCCNC(=O)c2cc(Sc3ccc(F)cc3)nc3ccccc23)CC1` it was 15.8 µM [falling, single point]; in that of `CC(=O)c1cc(CN2CCC(C(=O)Nc3cccc(-c4cscn4)c3)CC2)cs1`, 6.31 µM [falling, single point].
The same measure, in the same setting: the same measure for `COc1cccc(C2c3[nH]c4ccccc4c3CCN2Cc2cnc(C)s2)c1OC` (configuration not stated): 5.62 µM [rising, single point].
For `O=C(CCC(=O)NNc1nc2ccccc2c2nc(-c3ccccc3)nn12)NCCCN1CCCC1=O`, the AC50 under setting [2] was 31.6 µM [falling, single point].
On the same count and under the same terms, in the case of `O=[N+]([O-])c1ccc(/C=N/Nc2ccnc3cc(Cl)ccc23)o1` it was 0.562 µM [rising, partial curve, poor fit]; in that of `Cn1nc(C(=O)OCC(=O)N2CCc3ccccc32)c2ccccc2c1=O`, 5.8 µM [falling, single point].
On the same count and under the same terms, in the case of `COc1ccc(N2CCN(CCCNC(=O)C(=O)c3c[nH]c4ccccc34)CC2)cc1` it was 17.8 µM [falling, partial curve, poor fit]; in that of `Cc1ccc(NC(=O)CSc2n[nH]c(-c3ccco3)n2)cc1`, 35.5 µM [falling, single point].
Still for that read-out and setting: in the case of `Cc1ccc(-c2nc3ccc(Cl)cc3n2OC(C)C(=O)O)cc1` (configuration not stated) it was 3.98 µM [rising, single point].
In the case of `COc1ccccc1NCc1nnc(-c2ccccc2)o1`, the AC50 under setting [2] is 14.1 µM [falling, single point].
The same measure, in the same setting: in the case of `CCOC(=O)C(CC)Sc1nnc2c3cc(C)ccc3n(C)c2n1` (configuration not stated) it was 22.4 µM [falling, single point]; in that of `COc1ccc(OCC(O)CNCCOc2ccccc2OC)c(C(C)(C)C)c1` (configuration not stated), 14.1 µM [falling, single point].
On the same count and under the same terms, in the case of `CCN(CC)S(=O)(=O)c1ccc(C(=O)Nc2ccc3c(c2)OCCO3)cc1` it was 5.62 µM [falling, full curve, poor fit].
On the same count and under the same terms, the same measure for `C=CCn1c(=O)c2c(C)c(C)sc2n2c(Nc3ccccc3)nnc12`: 2.82 µM [falling, full curve]; for `O=C(NC1CCCCC1)c1cc(-c2cccc(Cl)c2)on1`: 5.01 µM [falling, partial curve, poor fit].
As for `O=C(O)COc1ccccc1-c1nc(-c2ccccc2)c(-c2ccccc2)[nH]1`, under setting [2], the AC50 is 11.2 µM [falling, single point].
Same read-out and setting: the same measure for `COc1ccc2c(c1)c(CC(=O)O)c(C)n2C(=O)c1ccc(Cl)cc1`: 7.08 µM [falling, partial curve].
`COc1ccc(C(=O)/C(C#N)=N/Nc2ccccc2[N+](=O)[O-])cc1`: the AC50 under setting [2] was 11.6 µM [rising, partial curve].
As for `COCC1CCCN(C(=O)c2ccc3oc(CCCc4ccccc4)nc3c2)C1` (configuration not stated), the concentration at half-maximal activity (AC50) under setting [2] is 20 µM [falling, single point].
As for `CCCc1nc([N+](=O)[O-])c(S(=O)(=O)c2ccccc2)n1CC(C)C`, the AC50 under setting [2] was 10.3 µM [falling, partial curve] and the AC50 under setting [1] is 8.2 µM [falling, partial curve].
`CCn1c(SCC(=O)Nc2nc3ccc(C)cc3s2)nc2c(c1=O)SC(C)C2` (configuration not stated): under setting [2], the AC50 is 1.26 µM [falling, full curve, poor fit].
Still for that read-out and setting: in the case of `CC(=O)c1ccc(NC(=O)CSCCO)cc1` it was 3.26 µM [rising, partial curve, poor fit].
The same measure, in the same setting: in the case of `CC1CCCC(NC(=O)COC(=O)Cc2ccc(Cl)cc2)C1C` (configuration not stated) it was 0.82 µM [rising, full curve, poor fit]; in that of `COc1ccc(C(=O)NNC(=O)c2ccccc2[N+](=O)[O-])cc1Br`, 14.6 µM [falling, partial curve, poor fit]; in that of `COc1ccc(N(C)S(=O)(=O)c2cccc(C(=O)NCC3CCCO3)c2)cc1` (configuration not stated), 2.59 µM [falling, full curve, poor fit].
Still for that read-out and setting: in the case of `CSc1ccccc1NC(=O)C1=CC(c2ccc(C)cc2)=NS(=O)(=O)N1C` it was 3.16 µM [falling, partial curve, poor fit].
For `Oc1ccccc1C(=S)N1CCCCCC1`, the half-maximal activity concentration (AC50) under setting [2] is 0.731 µM [falling, partial curve, poor fit].
The same measure, in the same setting: in the case of `COc1cccc(C(=O)/C=C/Nc2cc(C)ccc2O)c1` it was 29.1 µM [falling, single point].
For the compound `Cn1cc(C(=O)N/N=C/C(Br)=C\c2ccccc2)ccc1=O`, the AC50 under setting [2] was 3.16 µM [rising, single point].
Take `Cc1ccc2c(C(=O)CN3CCC4(CC3)OCCO4)c(C)[nH]c2c1`: the AC50 by setting is: under setting [2], 35.5 µM [falling, single point]; under setting [1], 35.5 µM [rising, partial curve, poor fit].
Regarding `COc1ccc(-c2cn3c4c(sc3n2)CCCC4)cc1`, the AC50 under setting [2] was 0.231 µM [rising, full curve, poor fit].
On the same count and under the same terms, the same measure for `CCOC(=O)C(CC)n1nc(C)n2c(cc3occc32)c1=O` (configuration not stated): 32.6 µM [falling, single point]; for `O=c1[nH]c(CSc2ccccc2)nc2c1oc1ccccc12`: 3.98 µM [falling, partial curve].
